Data as given in PubChem BioAssay AID504784 (Drosophila RNAi Screening Center, 2011).

Purpose: 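Fly genes whose silencing alters how much lipid cells keep in droplets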 (primary screen)
Cells: Drosophila Kc167 embryonic cells
Reagent: long dsRNA against Drosophila genes, about 250 ng dsRNA per well
Duration: 4 days
Conditions: cells fed 400 µM oleic acid bound to BSA
Detection: 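Microscope images give a droplet-to-nucleus area ratio, taken as log and converted to a screen-wide B-score; higher values mean greater lipid storage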
Direction: droplet/nuclear area B-score: higher = more stored lipid (overstorage)
In all, the deposit lists about 17,000 reagents; below is a random part of those that have a named target and a result. 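Each column is one replicate's B-score; the combined score over replicates was not deposited, so single values may mislead.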 The numbers tell different reagents against one gene apart. Names joined by + are all predicted targets of the reagent. No sequences are given here.

no.	predicted target	dsRNA no.	droplet/nuclear area B-score, replicate 1	droplet/nuclear area B-score, replicate 2	droplet/nuclear area B-score, replicate 3
1	Cep290	1	-1.56	-1.13	
2	Tsf2	1	-0.329	-1.1	
3	Tsp29Fa	1	-0.655	1.61	
4	CG9799	1	-0.0662	-0.0298	
5	CG12009	1	0.962	0.899	
6	Diedel3	1	-0.154	-0.804	
7	sofe	1	-0.278	1.04	1.06
8	ohgt	1	2.06	-0.0118	
9	CG31200	1	0.701	-0.187	
10	Graf	1	0.00895	1.4	0.749
11	CG12964	1	-0.166	0.654	-1.14
12	CG12964	2	-1.08	-1.74	
13	CG30427	1	-0.17	0.638	
14	CG30427	2	-0.000754	1.76	
15	CG30427	3	0.219	-1.68	
16	Dhc93AB	1	0.0906	0.589	
17	CG34175	1	-1.41	-0.0319	
18	CG31087	1	0.839		
19	CG30271	1	3.44	0.0901	
20	CG14572	1	-2.19	0.278	
21	CG31089	1	1.18	-0.195	
22	CIAPIN1	1	0.504	1.16	
23	CG14442	1	4.13	-0.0811	1.33
24	Rsf1	1	0.729	0.692	
25	Rsf1	2	1.86	0.457	
26	eIF4EHP	1	1.12	1.86	
27	eIF4EHP	2	-0.562	-1.83	
28	TwdlG	1	0.318	0.0577	
29	S-Lap8	1	-1.12	-1.15	0.913
30	S-Lap8	2	0.561	1.43	
31	CG4835	1	1.96	0.379	
32	CG43163	1	0.204	0.567	
33	CG43163	2	0.219	0.667	
34	PsGEF	1	-1.36	0.68	
35	NAAT1	1	0.947	-0.0659	
36	SMC1	1	-0.308	0.474	
37	Tpst	1	-0.219	0.365	
38	Tpst	2	0.00324	-0.338	-0.456
39	Tpst	3	-1.3	-2.68	-0.72
40	Tpst	4	1.72	-2.77	0.539
41	Tpst	5	-6.72	-5.01	
42	Pglym78	1	0.0162		
43	CecC	1	0.248	0.088	
44	CG13428	1	-1.84	0.666	
45	CG15386 + CG42371	1	-0.173	-1.04	
46	caly	1	3.56	1.17	
47	Cpr49Ae	1	2.26	0.315	
48	CG13377	1	-2.13	-2.41	
49	CG4712	1	0.0518	-0.023	
50	snRNA:U1:95Cc	1	-2.58	-3.11	
51	CG5194	1	2.01	-0.753	
52	Vha16-1	1	-1.87	-0.379	
53	CG15564	1	1.51		
54	Or33a	1	0.00152	0.116	
55	NitFhit	1	-0.917	0.0263	
56	CG14342	1	-0.866	-1.5	
57	CG5162	1	-0.123	-2.83	
58	aurB	1	0.639		
59	aurB	2		0.0376	
60	wrm1	1	3.18	0.695	
61	CG14356	1	0.0228	0.11	
62	lky	1	0.0533	-0.00349	
63	CG15547	1	-0.713	-2.45	
64	CG3288	1	0.538	0.133	
65	Fst	1	0.941	-0.0463	
66	CG13024	1	-0.959	-0.869	
67	Cyp318a1	1	-1.09	-1.22	-0.00227
68	Upf3	1	0.253	-0.576	
69	Caf1-55	1	0.012	-0.126	
70	PH4alphaNE1	1	-4.11	0.344	
71	Socs44A	1	0.7	0.222	
72	CG9168	1	0.57	-0.0666	
73	Mip	1	-3.55	0.74	-0.348
74	CG30275	1	0.237	-0.96	
75	Cyp12c1	1	-0.271	0.528	1.35
76	Vps39	1	0.529	-0.233	
77	AIMP3	1	-0.613	0.0241	
78	CG17683	1	0.231	-0.386	
79	CG9649	1	0.774	-0.0385	
80	Dhit	1	-1.32	-0.147	
81	mip40	1	-0.305	-1.21	
82	SLC5A11	1	0.527	-0.809	
83	NHP2	1	1.21	-0.0507	

Only “droplet/nuclear area B-score, replicate 1” (9 entries from above):
CG30427 #2	-0.000754
CG30427 #3	0.219
Dhc93AB	0.0906
CG34175	-1.41
CG31087	0.839
CG30271	3.44
CG14572	-2.19
CG31089	1.18
CIAPIN1	0.504
